PubChem BioAssay AID602196, INSERM, 2012
The whole screen tested about 23,000 reagents; below is an unselected part. 455 of all reagents (2%) were called active. 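Active includes both protection and sensitisation; some change values fall well beyond the stated -50 to +50 range.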 Not all columns of the deposit are shown. Not given: the amount of reagent.

Assay: 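Modifiers of cisplatin sensitivity in A549 cells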
Cell system: human A549 lung cancer cells
Knock-down reagent: siRNA pair against human genes
Time to read-out: 48 h transfection before cisplatin; time from cisplatin to read-out not stated
Challenge: cisplatin at a dose killing half of control-siRNA cells; exact dose and duration not given
Read-out: 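Shift in cisplatin death relative to control siRNA, from -50 (all cells die) to +50 (no cells die); siRNAs harmful on their own scored 0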
Direction: two-siRNA summed score (-2 to +2): higher = both siRNAs protect from cisplatin killing; -2 means both sensitise; mean protection from cisplatin (shift in death): higher = protection from cisplatin killing
Hit rule: 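siRNAs harmful alone (LDH or WST-1) get 0; others get +1 for less and -1 for more cisplatin killing; genes are active when the two siRNAs give the same sign, summing to ±2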
Calls: active = both siRNAs shift cisplatin killing the same way; inactive = no consistent shift, or siRNA harmful alone

ALOX12P2
- two-siRNA summed score (-2 to +2): -1
- mean protection from cisplatin (shift in death) (%): -11
- Call: inactive

LOC389124
- two-siRNA summed score (-2 to +2): 2
- mean protection from cisplatin (shift in death) (%): 16.3
- Call: active

LOC283400
- two-siRNA summed score (-2 to +2): 0
- mean protection from cisplatin (shift in death) (%): 6.3
- Call: inactive

PDAP1
- two-siRNA summed score (-2 to +2): -1
- mean protection from cisplatin (shift in death) (%): -3.5
- Call: inactive

MIER3
- two-siRNA summed score (-2 to +2): 0
- mean protection from cisplatin (shift in death) (%): -5.9
- Call: inactive

CCDC183
- two-siRNA summed score (-2 to +2): 0
- mean protection from cisplatin (shift in death) (%): 1.2
- Call: inactive

DNAJB12
- two-siRNA summed score (-2 to +2): 0
- mean protection from cisplatin (shift in death) (%): 2.7
- Call: inactive

TREML4
- two-siRNA summed score (-2 to +2): 1
- mean protection from cisplatin (shift in death) (%): 18.4
- Call: inactive

TEX264
- two-siRNA summed score (-2 to +2): 0
- mean protection from cisplatin (shift in death) (%): 9.6
- Call: inactive

LOC401225
- two-siRNA summed score (-2 to +2): 0
- mean protection from cisplatin (shift in death) (%): 3.8
- Call: inactive

RAB3IP
- two-siRNA summed score (-2 to +2): 0
- mean protection from cisplatin (shift in death) (%): -2.7
- Call: inactive

LOC401280
- two-siRNA summed score (-2 to +2): 0
- mean protection from cisplatin (shift in death) (%): 6.3
- Call: inactive

TPT1P4
- two-siRNA summed score (-2 to +2): 0
- mean protection from cisplatin (shift in death) (%): 12.4
- Call: inactive

ZFAT
- two-siRNA summed score (-2 to +2): 0
- mean protection from cisplatin (shift in death) (%): 0.1
- Call: inactive

UNC79
- two-siRNA summed score (-2 to +2): 0
- mean protection from cisplatin (shift in death) (%): 2.9
- Call: inactive

UGDH
- two-siRNA summed score (-2 to +2): 0
- mean protection from cisplatin (shift in death) (%): -2
- Call: inactive

ASTN2
- two-siRNA summed score (-2 to +2): 0
- mean protection from cisplatin (shift in death) (%): 6.7
- Call: inactive

SLC7A7
- two-siRNA summed score (-2 to +2): 0
- mean protection from cisplatin (shift in death) (%): 2.9
- Call: inactive

MUTYH
- two-siRNA summed score (-2 to +2): 0
- mean protection from cisplatin (shift in death) (%): 3.2
- Call: inactive

LOC285382
- two-siRNA summed score (-2 to +2): 0
- mean protection from cisplatin (shift in death) (%): 10.5
- Call: inactive

PHF8
- two-siRNA summed score (-2 to +2): 0
- mean protection from cisplatin (shift in death) (%): -0.8
- Call: inactive

RPL39L
- two-siRNA summed score (-2 to +2): 1
- mean protection from cisplatin (shift in death) (%): 9.8
- Call: inactive

SPR
- two-siRNA summed score (-2 to +2): 0
- mean protection from cisplatin (shift in death) (%): 5.5
- Call: inactive

SLC27A4
- two-siRNA summed score (-2 to +2): 1
- mean protection from cisplatin (shift in death) (%): 3.7
- Call: inactive

LOC440202
- two-siRNA summed score (-2 to +2): 2
- mean protection from cisplatin (shift in death) (%): 16.1
- Call: active

LOC440314
- two-siRNA summed score (-2 to +2): 0
- mean protection from cisplatin (shift in death) (%): 13.3
- Call: inactive

CDC50B
- two-siRNA summed score (-2 to +2): 0
- mean protection from cisplatin (shift in death) (%): 5.3
- Call: inactive

PAM
- two-siRNA summed score (-2 to +2): 0
- mean protection from cisplatin (shift in death) (%): -4.1
- Call: inactive

MLNR
- two-siRNA summed score (-2 to +2): 0
- mean protection from cisplatin (shift in death) (%): 4.2
- Call: inactive

LOC441460
- two-siRNA summed score (-2 to +2): 1
- mean protection from cisplatin (shift in death) (%): 4
- Call: inactive

MRPL41
- two-siRNA summed score (-2 to +2): 0
- mean protection from cisplatin (shift in death) (%): 8.8
- Call: inactive

NDUFA8
- two-siRNA summed score (-2 to +2): -1
- mean protection from cisplatin (shift in death) (%): -11
- Call: inactive

SPC25
- two-siRNA summed score (-2 to +2): 0
- mean protection from cisplatin (shift in death) (%): -27.1
- Call: inactive

NELFB
- two-siRNA summed score (-2 to +2): 0
- mean protection from cisplatin (shift in death) (%): 5.5
- Call: inactive

SLC22A8
- two-siRNA summed score (-2 to +2): 0
- mean protection from cisplatin (shift in death) (%): 0.7
- Call: inactive

TRAPPC9
- two-siRNA summed score (-2 to +2): 0
- mean protection from cisplatin (shift in death) (%): -8.2
- Call: inactive

HROB
- two-siRNA summed score (-2 to +2): 0
- mean protection from cisplatin (shift in death) (%): 10.3
- Call: inactive

DPY19L2
- two-siRNA summed score (-2 to +2): 0
- mean protection from cisplatin (shift in death) (%): 3.6
- Call: inactive

LOC389325
- two-siRNA summed score (-2 to +2): 1
- mean protection from cisplatin (shift in death) (%): 24.4
- Call: inactive

LOC161527
- two-siRNA summed score (-2 to +2): 0
- mean protection from cisplatin (shift in death) (%): 9.3
- Call: inactive

Part of the list above in another layout:
gene	two-siRNA summed score (-2 to +2)	mean protection from cisplatin (shift in death) (%)	Call
MIER3	0	-5.9	inactive
CCDC183	0	1.2	inactive
DNAJB12	0	2.7	inactive
TREML4	1	18.4	inactive
TEX264	0	9.6	inactive
LOC401225	0	3.8	inactive
RAB3IP	0	-2.7	inactive
